Results are given in words; binding and its absence hold for the method and conditions named. Some results given as binding are weak or reduced against the parent protein; the word gives no strength.
Biological target: caveolin-1 protein (UniProt Q03135)
Experiment: SPR; interruption experiment: CD147-5A12Fab complex (isolated by size exclusion chromatography) injected over CM5 chips with BSA, CD98 and caveolin-1 immobilised separately; Biacore T200; both purified

Chains of the proteins cited; added tags and fusions are not shown. Lines headed by an entry give the natural chain unless they say otherwise; changes in a name come on top. A line that says so, or that is headed by a name, gives the form on record, which may keep a tag or linker.
UniProt Q03135: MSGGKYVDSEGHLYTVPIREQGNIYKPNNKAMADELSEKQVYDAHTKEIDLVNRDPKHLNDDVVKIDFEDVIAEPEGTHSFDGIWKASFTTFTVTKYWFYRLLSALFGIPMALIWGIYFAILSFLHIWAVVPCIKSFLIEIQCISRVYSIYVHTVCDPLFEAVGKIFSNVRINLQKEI
extracellular portion of CD147 (ECD), amino acids 22–205 (P35613-2, form named): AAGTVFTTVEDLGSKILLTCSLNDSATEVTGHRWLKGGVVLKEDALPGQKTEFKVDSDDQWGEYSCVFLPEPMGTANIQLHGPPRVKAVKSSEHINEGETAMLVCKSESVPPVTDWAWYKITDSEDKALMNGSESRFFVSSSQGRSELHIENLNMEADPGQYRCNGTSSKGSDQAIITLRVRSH

binding: binds
Substance: extracellular portion of CD147 (ECD), amino acids 22–205 (from UniProt P35613-2 22-205) (domain or fragment)
